What all share (experiment): co-IP
For one assay, the target named is 6Myc-Cdk8 (human) (UniProt P49336).
Assay [1] has as its target CycC-3Flag-GFP-WT (human) (UniProt P24863).
The target in assay [2] is T1, CycC-YFDM (3Flag-GFP) (human) (UniProt P24863).
T1 sequence: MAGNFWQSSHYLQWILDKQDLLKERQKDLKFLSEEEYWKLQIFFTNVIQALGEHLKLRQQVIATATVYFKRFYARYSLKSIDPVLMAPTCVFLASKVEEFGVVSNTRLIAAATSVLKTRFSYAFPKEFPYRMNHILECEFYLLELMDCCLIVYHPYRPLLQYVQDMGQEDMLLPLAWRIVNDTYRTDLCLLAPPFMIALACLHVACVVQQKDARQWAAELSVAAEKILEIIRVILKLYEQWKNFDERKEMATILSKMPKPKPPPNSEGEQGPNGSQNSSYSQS

Chains of the proteins cited; added tags and fusions are not shown. Residues count along the entry.
UniProt P49336, residues 1-403: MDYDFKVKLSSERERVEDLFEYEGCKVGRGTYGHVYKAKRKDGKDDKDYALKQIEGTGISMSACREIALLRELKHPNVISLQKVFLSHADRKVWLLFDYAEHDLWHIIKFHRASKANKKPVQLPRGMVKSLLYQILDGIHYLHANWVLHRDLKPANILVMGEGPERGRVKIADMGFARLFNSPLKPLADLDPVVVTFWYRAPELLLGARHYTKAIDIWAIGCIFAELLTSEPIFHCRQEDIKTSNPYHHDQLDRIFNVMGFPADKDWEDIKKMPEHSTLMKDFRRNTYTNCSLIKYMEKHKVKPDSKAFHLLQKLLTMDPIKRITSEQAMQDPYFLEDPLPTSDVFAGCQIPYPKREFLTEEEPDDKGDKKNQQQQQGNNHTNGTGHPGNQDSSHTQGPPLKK

Results are given in words; binding and its absence hold for the method and conditions named. In cells and extracts the contact can be indirect. Some results given as binding are weak or reduced against the parent protein; the word gives no strength. For some assays here: Where a sequence is shown, tags or fusion partners need not be part of it.

B1: MTBP-516-704-WT (domain or fragment, UniProt Q96DY7 516-704)
chain: AVIPKMILRKMDKIKTFNILNDFSPVEPNSSSLMETNPLEWPERHVLQNLETFEKTKQKMRTGSLPHSSEQLLGHKEGPRDSITLLDAKELLKYFTSDGLPIGDLQPLPIQKGEKTFVLTPELSPGKLQVLPFEKASVCHYHGIEYCLDDRKALERDGGFSELQSRLIRYETQTTCTRESFPVPTVLSP
With B1, in the assay with 6Myc-Cdk8 (human), the binding result is reported as “binds”.

B2: Med12(N100), overexpressed in Hek293T (domain or fragment, UniProt Q93074 1-100)
chain: MAAFGILSYEHRPLKRPRLGPPDVYPQDPKQKEDELTALNVKQGFNNQPAVSGDEHGSAKNVSFNPAKISSNFSSIIAEKLRCNTLPDTGRRKPQVNQKD
As for B2, in the assay with 6Myc-Cdk8 (human), the binding result is “binds”.

B3: MTBP (endogenous, full-length) (protein, UniProt Q96DY7 1-904)
chain: MDRYLLLVIWGEGKFPSAASREAEHGPEVSSGEGTENQPDFTAANVYHLLKRSISASINPEDSTFPACSVGGIPGSKKWFFAVQAIYGFYQFCSSDWQEIHFDTEKDKIEDVLQTNIEECLGAVECFEEEDSNSRESLSLADLYEEAAENLHQLSDKLPAPGRAMVDIILLLSDKDPPKLKDYLPTVGALKHLREWYSAKITIAGNHCEINCQKIAEYLSANVVSLEDLRNVIDSKELWRGKIQIWERKFGFEISFPEFCLKGVTLKNFSTSNLNTDFLAKKIIPSKDKNILPKVFHYYGPALEFVQMIKLSDLPSCYMSDIEFELGLTNSTKQNSVLLLEQISSLCSKVGALFVLPCTISNILIPPPNQLSSRKWKEYIAKKPKTISVPDVEVKGECSSYYLLLQGNGNRRCKATLIHSANQINGSFALNLIHGKMKTKTEEAKLSFPFDLLSLPHFSGEQIVQREKQLANVQVLALEECLKRRKLAKQPETVSVAELKSLLVLTRKHFLDYFDAVIPKMILRKMDKIKTFNILNDFSPVEPNSSSLMETNPLEWPERHVLQNLETFEKTKQKMRTGSLPHSSEQLLGHKEGPRDSITLLDAKELLKYFTSDGLPIGDLQPLPIQKGEKTFVLTPELSPGKLQVLPFEKASVCHYHGIEYCLDDRKALERDGGFSELQSRLIRYETQTTCTRESFPVPTVLSPLPSPVVSSDPGSVPDGEVLQNELRTEVSRLKRRSKDLNCLYPRKRLVKSESSESLLSQTTGNSNHYHHHVTSRKPQTERSLPVTCPLVPIPSCETPKLATKTSSGQKSMHESKTSRQIKESRSQKHTRILKEVVTETLKKHSITETHECFTACSQRLFEISKFYLKDLKTSRGLFEEMKKTANNNAVQVIDWVLEKTSKK
B3: the binding entry (in assay [1]; in the assay with 6Myc-Cdk8 (human); in assay [2]) was “binds” throughout.

(Values after doi:10.1101/2025.06.16.659917.)
